Laboratory results: PubChem BioAssay AID1347426 (Functional Genomics Laboratory (NCATS/FGL), 2020)
Hit rate of the full screen: of about 31,000 sequences, about 1,400 (4.5%) were called active.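 Rule for the calls: active = median seed-adjusted z-score above 1 or below -1; inactive = the rest.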 Some of the results follow.

Experiment: Novel Modifiers of Survival Motor Neuron (SMN) Protein: Gene Identification via Genome-wide siRNA Screen;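 note: luminescence tracks full-length SMN protein made from the SMN2 reporter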
Conditions: HEK293T SMN2-luciferase reporter, siRNA knockdown, 72 h; actives lie on both sides
Method in brief: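 HEK293T cells stably carrying an SMN2 promoter/splicing cassette–luciferase reporter were reverse-transfected with 1 pmol siRNA per well (druggable-genome library, 3 siRNAs per gene) and grown 72 h at 37 °C. Luminescence, normalized to negative-control siRNA and log10-transformed, was scored as MAD.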

Sequence | median seed-adjusted z-score
GAUUGGACCUUGUGAAGGATT against GLUL | inactive: -0.307
GGACGGUUUAAGGAACAGATT against SEMA6D | inactive: 0.0624
CUCUUGUACCAGUUCCUGATT against SLC25A35 | inactive: -0.762
CCACUAACGUGAUAAUACUTT against NUP88 | inactive: 0.709
AGGGAUACCUUUUUCCUCATT against B4GALNT4 | inactive: -0.567
GCAAUUGUCUACCCAUUUATT against P2RY5 | inactive: 0.0278
GCAGUGACAUUGUACAGAATT against PDE3A | inactive: 0.291
GCCCUAUACAUACAGUUCATT against ZFP112 | inactive: -0.449
GGGAGUUUCUUGUGCAAGATT against CCBP2 | inactive: -0.0896
GCCCUGAAAUGCAUCCGCATT against CLDN18 | inactive: 0.000299
GGUUGACUCAGAUACUACATT against CENPE | inactive: 0.298
GGGAUACGGCAAGCAUGAATT against DUSP26 | inactive: 0.204
AGGCUUUGCUUGAAGUCAATT against MSLN | inactive: -0.344
CUAUGGACCAGUAAUCUGATT against COX7A2 | inactive: -0.0808
GCACUCCACUAUGAUCGGATT against GJD2 | inactive: -0.229
CACCCGUGGUUGUUACACUTT against CDK4 | inactive: 0.346
CUGUGGGAACUAUUAAAAATT against PCGF5 | inactive: 0.25
GAGUAUCUGUUGUCCAGGATT against PDIK1L | inactive: 0.0682
CUCUGUUGAAGGUAGCAAATT against TIGD4 | inactive: -0.553
GGAAGUAUGUUCUACAAGATT against SAMD7 | inactive: 0.161
CAUCAUCAAUGGAAGCACUTT against PLXNA3 | inactive: 0.255
GGCUACUACUGCAACUGUATT against ITGB3 | inactive: 0.456

Sequence | median seed-adjusted z-score
GAGACAACCUGCAACGACATT against GDI1 | inactive: 0.198
CCACCUCGGAUGGAGGUUATT against INHA | inactive: 0.231
CGAAGUUCAAGUAUAGGUATT against RAG1 | active: -1.35
GGAGUGGUCUGAUAGAACUTT against PLA2R1 | inactive: -0.0304
GUGAGAAGAUGAUCACGAATT against PHYH | inactive: 0.208
ACAGUCAGCUGUUAGAGAATT against PFDN1 | inactive: 0.212
CCGGUGCUCUACGUCUUCATT against LTB4R2 | inactive: -0.26
CGGUUGAACCCUACACGAATT against STAT1 | inactive: -0.0526
GGACUUGAGAGAUCUCUUUTT against DAB1 | inactive: 0.307
AGAGAAUUUAUAUCGAAGATT against ZNF492 | inactive: 0.0668
CCUAGUGUUUGUGAAAUAATT against ATP6V0B | inactive: 0
GCAUCCCACAUUAAGUCAATT against B3GALNT2 | inactive: -0.227
GGUCCUAAAAGAUAUCUGUTT against TGM7 | inactive: 0.244
GCUCAGUUUAAUACACCUATT against PDLIM3 | inactive: -0.297
CUUCUACAGUGGUCACCUATT against VPS29 | inactive: -0.408
GCACCUAUCUGGACAUGAATT against VPS18 | inactive: 0.181
GACUCGUCAAGGACAGAUATT against LPHN3 | inactive: -0.0576
GCACGGCUUUUGUUCAGAUTT against TERT | inactive: -0.698
GAUUCACAACCAUUCCACATT against GJC1 | inactive: -0.0291
CGGUAUUACUCGAACGUAUTT against TPCN2 | inactive: -0.341
CAGGAACCCUUGAAGGUAATT against MAP1A | inactive: -0.17
CUCAUAUACCUAUACCUCATT against AMIGO1 | inactive: 0.175

Laid out differently: results already given
Sequence	median seed-adjusted z-score
GCACCUAUCUGGACAUGAATT against VPS18	inactive: 0.181
GACUCGUCAAGGACAGAUATT against LPHN3	inactive: -0.0576
GCACGGCUUUUGUUCAGAUTT against TERT	inactive: -0.698
GAUUCACAACCAUUCCACATT against GJC1	inactive: -0.0291

Not a retest: an excerpt of the list.
Sequence | median seed-adjusted z-score
GGAGUGGUCUGAUAGAACUTT against PLA2R1 | inactive: -0.0304
GUGAGAAGAUGAUCACGAATT against PHYH | inactive: 0.208

Later entries:

Sequence | median seed-adjusted z-score
GAACUGGGCGAGUAUUACATT against SUPT5H | active: -4.02
GAAAAGAAGCUCAAGUGUATT against ZNF410 | inactive: -0.135
GCCUCACCCUUAGCCUUUATT against TTLL10 | inactive: 0.211
CAUUCAACCAGUUAUUACATT against N6AMT1 | inactive: 0.166
GCCGAGACUGUAGCAGAGATT against HES4 | inactive: 0.705
GAUCGACUGCUAGAGAGUATT against DCLK1 | inactive: 0.193
CCAUCGACGGUGUUACCUATT against ITIH3 | inactive: 0
GCUUCCACGUGGUCUAUGUTT against TBX1 | inactive: -0.744
AGAUCGACGUGAUCAAGCATT against GNAS | inactive: -0.531
CCACGAUCGUUCACAAGGATT against KCTD4 | inactive: 0.649
GCACAUAGCUAUCCGCCCATT against GUCY2D | inactive: 0
GGUUCUGCUUUAUUACCUUTT against HNRNPD | inactive: 0.504
GGAAGACUCAAAUACAGUATT against TRIM5 | inactive: 0.0758
GAUGUGCAAUUCUUAAAGATT against NAAA | inactive: -0.137
UCAUCGACAGCAAAAAUUATT against SUSD2 | inactive: 0.422
GAUUCAUACAUACCUCGAATT against MYSM1 | inactive: -0.116
GCCUGUGACUCAUACUGGATT against ELF5 | inactive: -0.45
GGUUAUAAGCGGGUUAACATT against LTBP1 | inactive: 0.143
UGCUAUAGCUUGCUAGUAATT against CD28 | inactive: -0.993
GGUGGAGACAUUUACAUCUTT against CREB3L1 | inactive: 0.708
GCGCUUGGAGCAUCCCUUUTT against NME3 | inactive: -0.0125
CCAUGCUCCUGCAACAUUATT against AHSA1 | inactive: 0.489

Sequence | median seed-adjusted z-score
GAUGUUCCCUGAUAGCAAATT against SPRR2B | inactive: 0.388
GCAUAGUGGGUGACUAUCATT against GOLGB1 | inactive: 0.0851
GCUAAAGUCCGGUUACAGATT against UCP2 | inactive: -0.111
GUAUCGUCGAGAAGCCUAUTT against NT5C2 | inactive: -0.687
GCACCUACACUGACGAAGATT against FARSB | inactive: 0.317
GCUGUACUCUACCUAUUUATT against SLC5A11 | inactive: -0.219
CCAUAACUGCAGUUUUGAUTT against DMBT1 | inactive: -0.131
GGGUCUGAAGUGAACAAGATT against RBBP8 | inactive: 0.323
GAGCUGAUCUGCAAGAUCATT against DIRAS3 | inactive: -0.419
CAAAGUGAAGAGAUACCUATT against ZNF346 | inactive: 0.00564
CCAGGCUAUUCCUACAACATT against PITX2 | inactive: -0.231
AGACAAUCGUCAUGCAAUUTT against CDC37 | inactive: 0
CGAUUCCAGCAGUAGCUCATT against AP3B2 | active: -2.45
GGGUUGAAUUUAUUGAGCUTT against GHR | inactive: 0.273
CAAAAUGCAUUAGCUGAAATT against VIP | active: 1.52
GUAUCUGCAUCAUGCAAAATT against HAS2 | inactive: 0.354
GAGAGAACAUAAUUCAUUUTT against PADI4 | inactive: 0.417
GGCGUGGUCUUACGAGAUATT against SLC12A7 | inactive: -0.0309
CAAACGGCUCUAUAAUGAATT against CCNI | inactive: -0.174
GAUUGAAGGCGGUGUCUAATT against NEK1 | inactive: 0.296
ACUUCACAGCUGUUCGUGATT against SLC30A2 | inactive: -0.402
GAAGUACCCAAACUAUAAATT against SOX6 | inactive: 0.0135

Sequence | median seed-adjusted z-score
GCCUCUGGCGAUUUGGUGATT against NFKBIL1 | inactive: 0.282
CUUUUUCAAUGAAAGAGAATT against SOX1 | inactive: 0.415
CAAGGACUGCCCUAAAGUATT against SERAC1 | inactive: -0.0919
GAUACUGAGAGAUUUCUUUTT against USP27X | inactive: 0.43
GAACAGCACAAGAGUUAUATT against NOS3 | inactive: 0.212
GAGCAGUGAUUAACGAUAUTT against AUH | inactive: 0
GGCAAAAAUCGAUAAUGAATT against CYB5R2 | inactive: -0.403
GAGCCCAUCUUAAUCCCGATT against AMBP | inactive: -0.679
CGAGUUCUAUCUUGAGAAUTT against TEX13A | active: -1.22
GCCCUUUACAUACUCUUCATT against IL23R | inactive: 0.512
GCAUGUAAGAAUCCACAAUTT against ZNF187 | inactive: 0.419
GAGUUUCAACAAACAGACATT against APOA5 | inactive: -0.791
GACCUAUCGUUGGGUUAUATT against ASRGL1 | inactive: 0
GACUUUCACUUCCGCCUUATT against OAZ3 | inactive: 0.046
CAGUGAUGAUUACUACAAATT against PJA1 | inactive: -0.275
CCCGAGAACCAGUUGUUAATT against CLDN19 | inactive: 0
GCUCAUAUAUAGAUUCUUATT against ALDH8A1 | inactive: 0.0628
GACACUAGCUUAAACAACUTT against ZFAND5 | inactive: 0.0289
CACUUCGCCUGAGAUCAAATT against GIPC2 | inactive: -0.0367
GCAGGAGUAUGGGACCAGATT against TARBP2 | inactive: 0.068
